Record: PubChem BioAssay AID602196 (INSERM, 2012)

Screen: 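Genes whose knock-down alters cisplatin killing of lung cancer cells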
Cells: human A549 lung cancer cells
Reagents: siRNA pair against human genes
Duration: 48 h transfection before cisplatin; time from cisplatin to read-out not stated
Conditions: cisplatin at a dose killing half of control-siRNA cells; exact dose and duration not given
Read-out: 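Cisplatin cell death as a shift from the 50% death seen with control siRNA; siRNAs toxic or growth-blocking alone scored 0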
Direction: two-siRNA summed score (-2 to +2): higher = both siRNAs protect from cisplatin killing; -2 means both sensitise; mean protection from cisplatin (shift in death) and protection from cisplatin (shift in death), siRNA C and protection from cisplatin (shift in death), siRNA D: higher = protection from cisplatin killing
Call rule: 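siRNAs harmful alone (LDH or WST-1) get 0; others get +1 for less and -1 for more cisplatin killing; genes are active when the two siRNAs give the same sign, summing to ±2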
Calls: active = both siRNAs shift cisplatin killing the same way; inactive = no consistent shift, or siRNA harmful alone
Here is one part, drawn at random, of about 23,000 reagents. Over the whole deposit, 455 (2%) were called active. 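Active includes both protection and sensitisation; some change values fall well beyond the stated -50 to +50 range.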 Not stated in the record: the amount of reagent.

| gene | two-siRNA summed score (-2 to +2) | mean protection from cisplatin (shift in death) (%) | protection from cisplatin (shift in death), siRNA C (%) | protection from cisplatin (shift in death), siRNA D (%) | call |
| --- | --- | --- | --- | --- | --- |
| LOC440928 | 0 | 17.7 | 30.8 | 4.6 | inactive |
| LOC341346 | 0 | 6.1 | 3 | 9.2 | inactive |
| LOC441221 | 0 | 0.7 | 2.1 | -0.7 | inactive |
| DENND3 | 1 | 12.9 | 13.4 | 12.4 | inactive |
| CEP70 | 0 | 4.8 | 18.1 | -8.4 | inactive |
| ITPK1 | 0 | -8.3 | -6.7 | -10 | inactive |
| FEM1C | -1 | -3.3 | -14.7 | 8 | inactive |
| MICAL3 | 0 | -1.1 | 5.5 | -7.8 | inactive |
| LOC441721 | 1 | 23.1 | 8.1 | 38 | inactive |
| BCKDHA | 0 | 3.3 | 11.6 | -5.1 | inactive |
| IFNA6 | 0 | 1.2 | -3.2 | 5.7 | inactive |
| LOC389310 | 0 | 11.4 | 22.7 | 0.1 | inactive |
| PTH1R | 0 | 1.7 | -5.7 | 9.2 | inactive |
| TSPYL3 | 0 | 6.4 | 2.7 | 10.2 | inactive |
| LOC344405 | 0 | -5.1 | 1 | -11.2 | inactive |
| UBE2L6 | -1 | -11.8 | -22.6 | -1 | inactive |
| CCDC42 | 0 | 4.8 | 7.5 | 2 | inactive |
| LOC388641 | 0 | 3.9 | 0.9 | 6.9 | inactive |
| OR6N2 | 0 | 1.3 | -0.7 | 3.4 | inactive |
| RBM18 | 0 | 6.6 | 9.3 | 3.8 | inactive |
| LOC442682 | 0 | -1.9 | -3 | -0.9 | inactive |
| STX7 | 0 | -13.2 | -12.3 | -14 | inactive |
| TNKS | 0 | -4 | 0.9 | -8.9 | inactive |
| LOC441652 | 0 | 7.7 | 5.5 | 10 | inactive |
| UNC80 | 0 | 15 | 13.2 | 16.9 | inactive |
| OR8H1 | 1 | 7.3 | -2.2 | 16.8 | inactive |
| LOC401891 | 1 | 14.2 | 16.7 | 11.7 | inactive |
| LOC388358 | 1 | 16.6 | 23.7 | 9.5 | inactive |
| MAN2A2 | 0 | 4.1 | 15.2 | -6.9 | inactive |
| CAD | 1 | 6.4 | 17.4 | -4.6 | inactive |
| ADA2 | 0 | -17.7 | -2.9 | -32.4 | inactive |
| ANKRD20A8P | 1 | 17 | 25 | 9 | inactive |
| LOC441883 | 0 | 32.3 | 25 | 39.7 | inactive |
| C4orf36 | 1 | 10.3 | 14.3 | 6.3 | inactive |
| MGAT3 | 1 | 5.4 | -4 | 14.7 | inactive |
| HIRA | 1 | 13 | 5.2 | 20.8 | inactive |
| CERS4 | 0 | 5.9 | -13.8 | 25.7 | inactive |
| LMTK2 | 0 | -0.7 | 6.9 | -8.2 | inactive |
| MON1A | 0 | -1.7 | 6.5 | -10 | inactive |
| NOC2L | 0 | -11.2 | -7.7 | -14.7 | inactive |
| STARD13 | 0 | -0.7 | -2.7 | 1.4 | inactive |
| ZNF195 | 0 | 9.5 | 6 | 13 | inactive |
| GPC6 | 0 | -0.4 | 10.6 | -11.5 | inactive |
| PRRG1 | 0 | -0.2 | -9.1 | 8.7 | inactive |
| DKFZp564C0469 | 0 | 1.4 | 2.9 | -0.1 | inactive |
| RTTN | 0 | 5 | 0.6 | 9.4 | inactive |
| LOC390183 | 1 | 17.7 | 9.6 | 25.8 | inactive |
| GPX2 | 0 | -8.7 | -6.6 | -10.7 | inactive |
| PDLIM1 | 0 | 4.5 | 11.4 | -2.5 | inactive |
| LOC343637 | 0 | 0.4 | 4.5 | -3.6 | inactive |
| PAK2 | 1 | 20 | 33.3 | 6.7 | inactive |
| MEST | 0 | 1.7 | 5.3 | -1.9 | inactive |
| FGD4 | 0 | 3.9 | -0.2 | 8 | inactive |
| LOC440706 | 1 | 16 | 24 | 8 | inactive |
| LOC442204 | 1 | 12.3 | 17.8 | 6.8 | inactive |
| FAM204A | 0 | 3.9 | 4.4 | 3.5 | inactive |
| ENTPD5 | 0 | 4 | 3.5 | 4.4 | inactive |

An excerpt from above, reduced to “protection from cisplatin (shift in death), siRNA D (%)”:
ADA2 = -32.4
ANKRD20A8P = 9
LOC441883 = 39.7
C4orf36 = 6.3
MGAT3 = 14.7
HIRA = 20.8
CERS4 = 25.7
